Measurements taken from ChEMBL document CHEMBL4316593 (Eur J Med Chem, 2019).
Further values from the same series stand in other lists.

Assays:
Assay type in all cases: cell-based
Conditions in all cases: U-87MG ATCC
[1] = Inhibition of RTK/PI3K/AKT/mTOR signaling in human U87 cells assessed as up regulation of transmembrane channel like 4 gene expression at cytotoxic IC50 measured after 48 hrs relative to control
[2] = Inhibition of RTK/PI3K/AKT/mTOR signaling in human U87 cells assessed as down regulation of PTP4A1 gene expression at cytotoxic IC50 measured after 48 hrs relative to control
[3] = Inhibition of RTK/PI3K/AKT/mTOR signaling in human U87 cells assessed as up regulation of TMEM125 gene expression at cytotoxic IC50 measured after 48 hrs relative to control
[4] = Inhibition of RTK/PI3K/AKT/mTOR signaling in human U87 cells assessed as up regulation of septin 3 gene expression at cytotoxic IC50 measured after 48 hrs relative to control
[5] = Inhibition of RTK/PI3K/AKT/mTOR signaling in human U87 cells assessed as down regulation of SMC6 gene expression at cytotoxic IC50 measured after 48 hrs relative to control
[6] = Inhibition of RTK/PI3K/AKT/mTOR signaling in human U87 cells assessed as up regulation of GTF2I repeat domain containing 1 gene expression at cytotoxic IC50 measured after 48 hrs relative to control
[7] = Inhibition of RTK/PI3K/AKT/mTOR signaling in human U87 cells assessed as down regulation of FN3KRP gene expression at cytotoxic IC50 measured after 48 hrs relative to control
[8] = Inhibition of RTK/PI3K/AKT/mTOR signaling in human U87 cells assessed as down regulation of DYNC1LI1 gene expression at cytotoxic IC50 measured after 48 hrs relative to control
[9] = Inhibition of RTK/PI3K/AKT/mTOR signaling in human U87 cells assessed as down regulation of RBM15 gene expression at cytotoxic IC50 measured after 48 hrs relative to control
[10] = Inhibition of RTK/PI3K/AKT/mTOR signaling in human U87 cells assessed as up regulation of SLC45A1 gene expression at cytotoxic IC50 measured after 48 hrs relative to control
[11] = Inhibition of RTK/PI3K/AKT/mTOR signaling in human U87 cells assessed as up regulation of RNF165 gene expression at cytotoxic IC50 measured after 48 hrs relative to control
[12] = Inhibition of RTK/PI3K/AKT/mTOR signaling in human U87 cells assessed as up regulation of epsin 3 gene expression at cytotoxic IC50 measured after 48 hrs relative to control
[13] = Inhibition of RTK/PI3K/AKT/mTOR signaling in human U87 cells assessed as up regulation of solute carrier family 15 member 4 gene expression at cytotoxic IC50 measured after 48 hrs relative to control
[14] = Inhibition of RTK/PI3K/AKT/mTOR signaling in human U87 cells assessed as down regulation of MCOLN3 gene expression at cytotoxic IC50 measured after 48 hrs relative to control
[15] = Inhibition of RTK/PI3K/AKT/mTOR signaling in human U87 cells assessed as down regulation of ZNF197 gene expression at cytotoxic IC50 measured after 48 hrs relative to control
[16] = Inhibition of RTK/PI3K/AKT/mTOR signaling in human U87 cells assessed as down regulation of TRIM26 gene expression at cytotoxic IC50 measured after 48 hrs relative to control
[17] = Inhibition of RTK/PI3K/AKT/mTOR signaling in human U87 cells assessed as up regulation of SPEG complex locus gene expression at cytotoxic IC50 measured after 48 hrs relative to control
[18] = Inhibition of RTK/PI3K/AKT/mTOR signaling in human U87 cells assessed as down regulation of DPM1 gene expression at cytotoxic IC50 measured after 48 hrs relative to control
[19] = Inhibition of RTK/PI3K/AKT/mTOR signaling in human U87 cells assessed as up regulation of SLC1A5 gene expression at cytotoxic IC50 measured after 48 hrs relative to control
[20] = Inhibition of RTK/PI3K/AKT/mTOR signaling in human U87 cells assessed as up regulation of Mov10 RISC complex RNA helicase gene expression at cytotoxic IC50 measured after 48 hrs relative to control
[21] = Inhibition of RTK/PI3K/AKT/mTOR signaling in human U87 cells assessed as down regulation of MAP1LC3B gene expression at cytotoxic IC50 measured after 48 hrs relative to control
[22] = Inhibition of RTK/PI3K/AKT/mTOR signaling in human U87 cells assessed as down regulation of PEA15 gene expression at cytotoxic IC50 measured after 48 hrs relative to control
[23] = Inhibition of RTK/PI3K/AKT/mTOR signaling in human U87 cells assessed as up regulation of translocation associated membrane protein 2 gene expression at cytotoxic IC50 measured after 48 hrs relative to control
[24] = Inhibition of RTK/PI3K/AKT/mTOR signaling in human U87 cells assessed as up regulation of chromobox 7 gene expression at cytotoxic IC50 measured after 48 hrs relative to control
[25] = Inhibition of RTK/PI3K/AKT/mTOR signaling in human U87 cells assessed as up regulation of basic helix-loop-helix family member e40 gene expression at cytotoxic IC50 measured after 48 hrs relative to control
[26] = Inhibition of RTK/PI3K/AKT/mTOR signaling in human U87 cells assessed as down regulation of NFS1 gene expression at cytotoxic IC50 measured after 48 hrs relative to control
[27] = Inhibition of RTK/PI3K/AKT/mTOR signaling in human U87 cells assessed as down regulation of EIF4EBP2 gene expression at cytotoxic IC50 measured after 48 hrs relative to control
[28] = Inhibition of RTK/PI3K/AKT/mTOR signaling in human U87 cells assessed as up regulation of heat shock transcription factor 4 gene expression at cytotoxic IC50 measured after 48 hrs relative to control
[29] = Inhibition of RTK/PI3K/AKT/mTOR signaling in human U87 cells assessed as down regulation of MYH9 gene expression at cytotoxic IC50 measured after 48 hrs relative to control
[30] = Inhibition of RTK/PI3K/AKT/mTOR signaling in human U87 cells assessed as down regulation of OTULIN gene expression at cytotoxic IC50 measured after 48 hrs relative to control
[31] = Inhibition of RTK/PI3K/AKT/mTOR signaling in human U87 cells assessed as up regulation of PAQR5 gene expression at cytotoxic IC50 measured after 48 hrs relative to control
[32] = Inhibition of RTK/PI3K/AKT/mTOR signaling in human U87 cells assessed as down regulation of MCM4 gene expression at cytotoxic IC50 measured after 48 hrs relative to control

For `CC(=O)C(=NNc1ccccc1C#N)C(C)=O`, the log2FC [1] was 1.15, the log2FC [2] was -0.959 and the log2FC [3] was 2.02. For the same molecule, the log2FC [4] was 0.722, the log2FC [5] was -0.896 and the log2FC [6] was 0.66. It also gave a log2FC [7] of -0.935, a log2FC [8] of -0.862 and a log2FC [9] of -1.08. It also gave a log2FC [10] of 2.82, a log2FC [11] of 2.23 and a log2FC [12] of 1.44. It also gave a log2FC [13] of 0.914, a log2FC [14] of -1.19 and a log2FC [15] of -0.928. For the same molecule, the log2FC [16] was -0.854, the log2FC [17] was 1.25 and the log2FC [18] was -0.721. For the same molecule, the log2FC [19] was 0.615, the log2FC [20] was 0.739 and the log2FC [21] was -1.27. The log2FC [22] was -0.848, the log2FC [23] was 0.818 and the log2FC [24] was 1.17. The log2FC [25] was 0.671, the log2FC [26] was -1.16 and the log2FC [27] was -1.04. It also gave a log2FC [28] of 1.17, a log2FC [29] of -0.872 and a log2FC [30] of -0.978. For the same molecule, the log2FC [31] was 2.42 and the log2FC [32] was -1.7.
